In publication PMC10123114:
Results are given in words; binding and its absence hold for the method and conditions named. In cells and extracts the contact can be indirect. Some results given as binding are weak or reduced against the parent protein; the word gives no strength. For some assays here: Sequences can lack the tags named with a protein.

T1: Flag-NHP2 (UniProt Q9NX24)
T1 sequence: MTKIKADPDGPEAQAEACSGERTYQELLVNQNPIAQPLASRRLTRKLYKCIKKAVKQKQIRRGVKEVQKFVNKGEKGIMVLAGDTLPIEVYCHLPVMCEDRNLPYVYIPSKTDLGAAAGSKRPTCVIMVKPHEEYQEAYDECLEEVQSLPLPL

T2: GFP-SHQ1 (UniProt Q6PI26)
T2 sequence: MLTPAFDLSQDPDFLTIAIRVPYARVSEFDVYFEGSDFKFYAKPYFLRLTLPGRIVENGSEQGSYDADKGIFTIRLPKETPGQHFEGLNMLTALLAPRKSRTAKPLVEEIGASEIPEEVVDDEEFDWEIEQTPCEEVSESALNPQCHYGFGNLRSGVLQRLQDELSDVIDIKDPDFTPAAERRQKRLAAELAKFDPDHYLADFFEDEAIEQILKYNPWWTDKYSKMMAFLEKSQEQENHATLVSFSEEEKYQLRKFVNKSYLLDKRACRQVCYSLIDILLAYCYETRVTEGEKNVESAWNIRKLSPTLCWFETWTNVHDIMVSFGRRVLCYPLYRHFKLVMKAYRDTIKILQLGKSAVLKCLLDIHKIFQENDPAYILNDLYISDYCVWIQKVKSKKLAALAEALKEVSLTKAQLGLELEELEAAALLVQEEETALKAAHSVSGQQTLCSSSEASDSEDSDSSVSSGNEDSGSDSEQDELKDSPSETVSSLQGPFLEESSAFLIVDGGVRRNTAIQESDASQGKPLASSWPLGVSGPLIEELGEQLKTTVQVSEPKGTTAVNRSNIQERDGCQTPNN

T3: Flag-NAF1 (UniProt Q96HR8)
T3 sequence: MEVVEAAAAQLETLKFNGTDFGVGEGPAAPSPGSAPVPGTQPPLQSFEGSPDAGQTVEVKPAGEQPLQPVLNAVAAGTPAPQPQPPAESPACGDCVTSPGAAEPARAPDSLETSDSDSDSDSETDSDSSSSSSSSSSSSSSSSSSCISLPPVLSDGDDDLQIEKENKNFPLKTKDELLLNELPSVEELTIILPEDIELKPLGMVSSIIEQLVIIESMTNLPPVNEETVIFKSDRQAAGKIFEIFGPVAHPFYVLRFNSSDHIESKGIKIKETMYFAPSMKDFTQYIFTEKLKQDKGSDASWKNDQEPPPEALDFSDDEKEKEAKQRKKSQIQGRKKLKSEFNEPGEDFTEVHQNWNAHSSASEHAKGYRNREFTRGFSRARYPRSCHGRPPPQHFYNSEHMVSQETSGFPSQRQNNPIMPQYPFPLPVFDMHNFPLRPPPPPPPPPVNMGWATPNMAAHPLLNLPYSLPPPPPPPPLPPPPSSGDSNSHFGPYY

T4: NHP2 (endogenous) (human (endogenous in HEK293)) (UniProt Q9NX24)
T4 sequence: T1 sequence

T5: GFP-SHQ1, Q6PI26
T5 chain: T2 sequence

B1: NAF1 (endogenous) (protein, UniProt Q96HR8 1-494)
chain: T3 sequence
B2: dyskerin (protein, UniProt O60832 1-514)
chain: MADAEVIILPKKHKKKKERKSLPEEDVAEIQHAEEFLIKPESKVAKLDTSQWPLLLKNFDKLNVRTTHYTPLACGSNPLKREIGDYIRTGFINLDKPSNPSSHEVVAWIRRILRVEKTGHSGTLDPKVTGCLIVCIERATRLVKSQQSAGKEYVGIVRLHNAIEGGTQLSRALETLTGALFQRPPLIAAVKRQLRVRTIYESKMIEYDPERRLGIFWVSCEAGTYIRTLCVHLGLLLGVGGQMQELRRVRSGVMSEKDHMVTMHDVLDAQWLYDNHKDESYLRRVVYPLEKLLTSHKRLVMKDSAVNAICYGAKIMLPGVLRYEDGIEVNQEIVVITTKGEAICMAIALMTTAVISTCDHGIVAKIKRVIMERDTYPRKWGLGPKASQKKLMIKQGLLDKHGKPTDSTPATWKQEYVDYSESAKKEVVAEVVKAPQVVAEAAKTAKRKRESESESDETPPAAPQLIKKEKKKSKKDKKAKAGLESGAEPGDGDSDTTKKKKKKKKAKEVELVSE
B3: SHQ1 (endogenous) (protein, UniProt Q6PI26 1-577)
chain: T2 sequence
B4: NHP2 (endogenous) (protein, UniProt Q9NX24 1-153)
chain: T1 sequence
B5: NOP10 (protein, UniProt Q9NPE3 1-64)
chain: MFLQYYLNEQGDRVYTLKKFDPMGQQTCSAHPARFSPDDKYSRHRITIKKRFKVLMTQQPRPVL
B6: SHQ1 (endogenous), Q6PI26 1-577 (protein)
chain: T2 sequence

Legend:
[1] = target: T1, Flag-NHP2; assay: co-IP; as a2 but with RNase A at 100 μg/ml in the IP; tagged bait expressed 3 h; western blot
[2] = target: T2, GFP-SHQ1; assay: as above
[3] = target: T1, Flag-NHP2; assay: co-IP + co-sedimentation; Flag-NHP2 expressed 3 h, anti-Flag IP, elution with Flag peptide, concentration, 10-30% glycerol gradient (18 fractions), western blot of fractions
[4] = target: T1, Flag-NHP2; assay: co-IP + co-sedimentation; Flag-NHP2 expressed 12 h, anti-Flag IP, elution with Flag peptide, concentration, 10-30% glycerol gradient (18 fractions), western blot of fractions
[5] = target: T1, Flag-NHP2; assay: co-IP; anti-Flag M2 affinity gel or GFP-Trap on total extracts of HEK293 Flp-In T-REx cells, tagged bait expressed 3 h; RSB150 (10 mM Tris-HCl pH 7.5, 150 mM NaCl, 2.5 mM MgCl2) with 0.05% NP-40, 2 h at 4 °C; without RNase A; western blot
[6] = target: T2, GFP-SHQ1; assay: as above
[7] = target: T3, Flag-NAF1; assay: co-IP; as a2 but with RNase A at 100 μg/ml in the IP; tagged bait expressed 3 h; western blot
[8] = target: T4, NHP2 (endogenous) (human (endogenous in HEK293)); assay: co-IP; anti-NHP2 antibody bound to protein A-Sepharose on HEK293 cell extracts (endogenous proteins); RSB150 with 0.05% NP-40; western blot
[9] = target: T3, Flag-NAF1; assay: co-IP + co-sedimentation; Flag-NAF1, anti-Flag IP in the absence of RNases, elution with Flag peptide, 10-30% glycerol gradient (18 fractions), western blot of fractions
[10] = target: T3, Flag-NAF1; assay: co-IP + co-sedimentation; Flag-NAF1, anti-Flag IP in the presence of RNase A (100 μg/ml), elution with Flag peptide, 10-30% glycerol gradient (18 fractions), western blot of fractions
[11] = target: T3, Flag-NAF1; assay: co-IP; anti-Flag M2 affinity gel or GFP-Trap on total extracts of HEK293 Flp-In T-REx cells, tagged bait expressed 3 h; RSB150 (10 mM Tris-HCl pH 7.5, 150 mM NaCl, 2.5 mM MgCl2) with 0.05% NP-40, 2 h at 4 °C; without RNase A; western blot
[12] = target: T1, Flag-NHP2; assay: co-IP; anti-Flag M2 affinity gel on extracts of HEK293 Flp-In T-REx cells expressing Flag-NHP2 for 12 h; with or without RNase A; cells untreated or treated with 20 μM ADOX for 24 h; western blot
[13] = target: T1, Flag-NHP2; assay: condition: only Flag-NHP2 expressed for 3 h (associated after 12 h); co-IP; anti-Flag M2 affinity gel or GFP-Trap on total extracts of HEK293 Flp-In T-REx cells, tagged bait expressed 3 h; RSB150 (10 mM Tris-HCl pH 7.5, 150 mM NaCl, 2.5 mM MgCl2) with 0.05% NP-40, 2 h at 4 °C; without RNase A; western blot
[14] = target: T5, GFP-SHQ1, Q6PI26; assay: co-IP; anti-Flag M2 affinity gel or GFP-Trap on total extracts of HEK293 Flp-In T-REx cells, tagged bait expressed 3 h; RSB150 (10 mM Tris-HCl pH 7.5, 150 mM NaCl, 2.5 mM MgCl2) with 0.05% NP-40, 2 h at 4 °C; without RNase A; western blot; conditions: remark: other sources report otherwise

Row | binding [1] | binding [2] | binding [3] | binding [4] | binding [5] | binding [6] | binding [7] | binding [8] | binding [9] | binding [10] | binding [11] | binding [12] | binding [13] | binding [14] | Binder
1 | binds | binds | binds | binds | binds | binds | – | – | – | – | – | – | – | – | B1
2 | binds | binds | binds | binds | binds | binds | binds | binds | binds | binds | binds | – | – | – | B2
3 | binds | – | binds | binds | binds | – | binds | binds weakly | – | binds | binds | – | – | – | B3
4 | – | binds | – | binds | – | binds | binds | – | binds | binds | binds | binds | no binding | – | B4
5 | – | binds | – | – | – | binds | binds | – | binds | binds | binds | – | – | – | B5
6 | – | – | – | – | – | – | – | – | – | – | – | – | – | no binding | B6
